Test results published in article PMC10163288.
The list shows a part of the results.

B1: il10ra_site1_sap_20_mot_HHH_b1_05126_000000053_0001_38_52_H_._HHH_b2_05116_af2_0001_0000900047_0000001_0_0001 (protein)
chain: SSDEREELKEEVEEEVEKAVENKDPELVKEIIAKALMEAARLRDDQLSMAIIRIYARANQLLQSS
B2: il10ra_site1_normal_mot_HHH_b1_06348_000000162_0001_1_15_H_._HHH_b1_08757_0001_0000100002_0000002_0_af2pred_0001 (protein)
chain: SSSSSNAQELYELLRKAAELHFDGNPEEARRVLEEAEELAEEAGDLNLLAVIEYMLELARSSSSS
B3: il10ra_site1_sap_22_mot_HHH_b2_06812_af2_000000299_0001_41_56_H_._6b926b9cc833b1484481a9987f373d78_0001_0001_0000100001_0000002_0_0001 (protein)
chain: SSSSDVEEEVRRLIEEAEELLERGNPREAMKLIAEALQHALRAGNPELFQELWEIAKEIAKSSSS
B4: il10ra_site1_sap_14_mot_HHH_b2_05343_000000235_0001_19_35_H_._HHH_b2_05666_0001_0000600037_0000001_0_0001 (protein)
chain: SSSSDQEFYKAVEEAIEKAIKLEKNGNPEEAERLLEEILEKAEELGNWAARWSIRHLLELLSSSS
B5: il10ra_site1_normal_mot_HHH_b1_03094_000000294_0001_1_20_H_._HHH_b2_02427_0001_0000400035_0000001_0 (protein)
chain: SSSSSDREEVLELAILALRLALRGNPEEARKVLEEAFELAEELGSEQALRVIEELLRTLNSSSSS
B6: il10ra_site1_normal_mot_HHH_b1_01082_af2_000000031_0001_3_19_H_._HHH_b1_08661_af2_0001_0000300027_0000001_0 (protein)
chain: SSSSSEELYEFVKKVIEEAIELWENGNPEEAQKLVEEAIEYIEERNNVAAAFSLKHLRRVLSSSS
B7: il10ra_site1_sap_3_mot_HHH_b2_07848_af2_000000174_0001_23_38_H_._HHH_b1_05395_af2_0001_0000100004_0000001_0_0001 (protein)
chain: SSSSDEKEEVLELIKEAFHLLLRGDPEEAEKVLERAFEIVEELGDERAKRMLESLLEIVRSSSSS
B8: il10ra_site1_normal_mot_HHH_b2_06979_000000158_0001_42_57_H_._HHH_b1_03932_af2_0001_0000600026_0000001_0_af2pred_0001 (protein)
chain: SSSSDRRELIERAYELLKRAAKIEDEEEVEELLREARELAEEAGNELLAEAIKSRERQLLSSSSS
B9: il10ra_site1_normal_mot_HHH_b1_02397_af2_000000085_0001_39_57_H_._HHH_b1_05840_0001_0000300026_0000002_0 (protein)
chain: SSSSDEEQERLEELLEELEELTERGDDERFAEVALEALRLAFELRDEEVLQKLWELVRLVSSSSS
B10: il10ra_site1_sap_15_mot_HHH_b1_00456_000000263_0001_1_17_H_._HHH_b2_03790_0001_0000300014_0000001_0_0001 (protein)
chain: SSSSSDETQEVYELIKEALNIDDPEEAREVLEEAEEIARELGNWVLERAVEAAKRAIEASSSSSS
B11: il10ra_site1_normal_mot_HHH_b1_05056_000000217_0001_1_20_H_._HHH_b1_07850_0001_0000700022_0000001_1 (protein)
chain: SSSSSSDAEEIVEELLEEAEHIEDPRERAEVLQEATHHAIRAQNPELLQLVWKVVKRLSSSSSSS
B12: il10ra_site1_normal_mot_HHH_b2_00475_000000107_0001_44_57_H_._HHH_b2_01638_af2_0001_0000900052_0000002_0 (protein)
chain: SSSSEAEQRVAELLFRALRLLYEGNPEEAKEVVEEARRLAEENNDEELEEYVRILKHFIESHSSS
B13: il10ra_site1_normal_mot_HHH_b1_01011_000000096_0001_1_19_H_._HHH_b2_00319_0001_0000100004_0000002_0 (protein)
chain: SSSSSEEEEYLRLSLRFLEWAIKAGDKEAARRLIRAIEDFVERSNNEEAKEELERLEEELKSSSS
B14: il10ra_site1_sap_15_mot_HHH_b1_06798_000000292_0001_1_19_H_._HHH_b2_08144_0001_0000200006_0000001_0_0001_af2pred_0001 (protein)
chain: SSSSSEEEVLELARRVIEALKNGNPEEAEKLIEEIERLAEELNDPRVKAIARLLREALEHSSSSS
B15: il10ra_site1_normal_mot_8756ee2cf497b5429c717dfc0c0bcfd6_0001_000000186_0001_1_13_H_._HHH_b2_01636_af2_0001_0000400010_0000001_0 (protein)
chain: SSSSDLSQEVAELLERVAELDNRGDEEEARKLLEEAKELAEEANNDVLRFQVEYLERLLNSSSSS
B16: il10ra_site1_sap_23_mot_HHH_b1_08411_af2_000000053_0001_1_20_H_._HHH_b2_03761_0001_0000300018_0000001_0_0001 (protein)
chain: SSSSDEEVQEYVRLTLRFVRWLREAGDPEAAEFFLRAAKDMAKKANDPELEREIEEVEEEISSSS
B17: il10ra_site1_normal_mot_HHH_b1_06816_000000239_0001_1_19_H_._HHH_b2_02034_0001_0000300012_0000001_0_af2pred_0001 (protein)
chain: SSSSSSDLEEQAEELLEEVEKIDNPEERTEVARKAIKLAVRAGNPELAREISRTATKLSSSSSSS
B18: il10ra_site1_sap_18_mot_HHH_b2_07442_000000239_0001_40_54_H_._HHH_b1_05032_af2_0002_0000900036_0000001_0_0001 (protein)
chain: SSSSSEEEERVEELLEEAKRIDDREKLIRVLLEALQIALRAGNEELLQEIWRLFRRLIEEVSSSS
B19: il10ra_site1_normal_mot_HHH_b2_03220_af2_000000223_0001_23_40_H_._HHH_b1_08499_0001_0000100001_0000001_0 (protein)
chain: SSSSDVAERAWELSRRALELLAEGNPEEARELLEEAEELLEERGNRVLLFNVELLLRDLNSSSSS
B20: il10ra_site1_sap_14_mot_HHH_b2_05423_000000119_0001_22_38_H_._c1e259e16b19a3635eeea4582300f2e1_0001_0001_0000300028_0000001_0_0001 (protein)
chain: SSSSSSSQEELEVRVLLWFAKWANNPESARIMVKRAVEIAEKLGNEELLEEARELLEQLSSSSSS
B21: il10ra_site1_normal_mot_HHH_b1_00566_000000151_0001_22_39_H_._HHH_b2_05312_0001_0000100001_0000001_0_af2pred_dldesign_0_af2pred (protein)
chain: SSSSSRDELYEKLVEVYRLHRAGDPRWEELLAELEAAARASGDPYAVALVEAARRALLEESSSSS
B22: il10ra_site1_sap_10_mot_HHH_b2_02053_af2_000000006_0001_3_19_H_._HHH_b1_03339_af2_0001_0000200005_0000001_0_0001 (protein)
chain: SSSSDDRSEQVWELLRRALEAHKRGDEELVEELLEEAKRLAEEGNDRVMLLQVEFLEKRQSSSSS
B23: il10ra_site1_normal_mot_HHH_b2_02900_000000189_0001_39_52_H_._HHH_b2_05056_0001_0000300014_0000001_0 (protein)
chain: SSSSSEELERSVRRFLEAAEQLYEQGDPELARLAVRFALHLARSENNEELVEELEELLRRLSSSS
B24: il10ra_site1_sap_22_mot_HHH_b1_01082_af2_000000031_0001_3_19_H_._HHH_b2_00323_af2_0001_0000200008_0000001_0_0001 (protein)
chain: SSSDDAERLYELSREALELRANGNPEEAEKLLEEAEELAEELGSHTLLAAIELLLKDIRENSSSS
B25: il10ra_site1_sap_21_mot_HHH_b1_06256_000000091_0001_42_58_H_._HHH_b2_06752_0001_0000200015_0000002_0_0001 (protein)
chain: SSSSSSREEVEELLERAEEAAERGNPEEAAKLLAEAVRFAFQLQDPELLREVWEVVERVASSSSS
B26: il10ra_site1_normal_mot_HHH_b2_05532_000000217_0001_1_18_H_._HHH_b1_03058_0001_0000200028_0000001_0_af2pred_0001 (protein)
chain: SSSSSEEAEELYEEIKEELEELAKRGNEKRVQRLAIRAARELLELGNPELAKKLLKFAQELSSSS
B27: il10ra_site1_normal_mot_HHH_b2_07784_af2_000000103_0001_19_36_H_._HHH_b1_06064_af2_0001_0000100002_0000001_0 (protein)
chain: SSSSSYEEVKKLIEEIVELLRNGDREEAQKLIEELRELAEELNNPSLKFVVRLLEKELEDLSSSS
B28: il10ra_site1_normal_mot_HHH_b1_01827_000000263_0001_1_19_H_._HHH_b2_04613_af2_0001_0000400023_0000001_0 (protein)
chain: SSSSTTELFERVRELIERASELYREGNPEEAEKLLEEAERLAEEANNLLLRFSVRRALRALSSSS
B29: il10ra_site1_sap_11_mot_HHH_b1_05865_af2_000000211_0001_1_17_H_._HHH_b2_05611_0001_0000200014_0000001_0_0001_af2pred_0001 (protein)
chain: SSSSSDEKVELAIRFAKFLLEQGDPEAAEFIIRAAVELAERNGDEELLEEARELLEEIESSSSSS
B30: il10ra_site1_normal_mot_HHH_b1_04771_000000013_0001_40_56_H_._HHH_b2_02872_0001_0000100001_0000001_0 (protein)
chain: SSSSSSDEVLELSLEAFRLALRGDPEEARKVLEEALELAEERGDERLVEVIEDLLRALSSSSSSS
B31: il10ra_site1_normal_mot_HHH_b1_08411_af2_000000053_0001_1_20_H_._HHH_b2_02982_0001_0000100009_0000001_0 (protein)
chain: SSSSQEHFELTREAIERASQLFREGNREEAERLLEEVLEEVRELGNFALEFALEHLLRALSSSSS
B32: il10ra_site1_sap_20_mot_HHH_b2_06979_000000158_0001_42_57_H_._HHH_b2_07537_af2_0001_0000100009_0000001_0_0001 (protein)
chain: SSSSSDEVYEEVRRAIEEARELAKRDPEQAERVLEEALEVAEEANNWAARFSLEHLAKALSSSSS
B33: il10ra_site1_sap_21_mot_HHH_b2_03425_000000200_0001_22_39_H_._HHH_b2_08230_af2_0002_0000300021_0000001_0_0001 (protein)
chain: SSSSDEDLRKAVELARLASKARDPEELEELYEEAQELLEKVKDENARRFLRFVLADLEWLLSSSS
B34: il10ra_site1_sap_25_mot_HHH_b1_08133_000000195_0001_1_19_H_._HHH_b1_03607_0001_0000200023_0000001_0_0001_af2pred_0001 (protein)
chain: SSSSSEEVEELEEEARELIKRNDPEEVLKIIRRLARLAFRLNDPEISKIAIELAELLKKLDSSSS
B35: il10ra_site1_sap_18_mot_HHH_b1_04385_af2_000000166_0001_42_56_H_._HHH_b1_07343_0001_0000500026_0000001_0_0001 (protein)
chain: SSSSDEHVEELLREAEELLEEGNPEEALEVVFRATHFAIQAQDPELLRLVWELVRRVAELSSSSS
B36: il10ra_site1_sap_13_mot_HHH_b2_07144_000000289_0001_1_18_H_._HHH_b1_02223_af2_0001_0000400024_0000002_0_0001_af2pred_0001 (protein)
chain: SSSSDVEELRLRLVVELARAFQRGDPELAEEIVEEAEELLKEKNDPKAVELLRQAARALLSSSSS
B37: il10ra_site1_normal_mot_513c16ae44941e68898e0f7c259e5a28_0001_1_000000056_0001_35_50_H_._ems_p1-15H-GBL-16H-GABBL-16H_0222_0001_0001_0002_0001_0000400004_000000 … (protein)
chain: SSSSSSFEEVIREAQKLAEENGDREAADLLRAILRLAEQGALDERWAELSAELLEELLESSSSSS

Molecular target: il10ra, Q13651
Assay: yeast display titration

Apparent Kd, inactive:
B1 no binding seen
B2 no binding seen
B3 no binding seen
B4 no binding seen
B5 no binding seen
B6 no binding seen
B7 no binding seen
B8 no binding seen
B9 no binding seen
B10 no binding seen
B11 no binding seen
B12 no binding seen
B13 no binding seen
B14 no binding seen
B15 no binding seen
B16 no binding seen
B17 no binding seen
B18 no binding seen
B19 no binding seen
B20 no binding seen
B21 no binding seen
B22 no binding seen
B23 no binding seen
B24 no binding seen
B25 no binding seen
B26 no binding seen
B27 no binding seen
B28 no binding seen
B29 no binding seen
B30 no binding seen
B31 no binding seen
B32 no binding seen
B33 no binding seen
B34 > 233 nM
B35 no binding seen
B36 no binding seen
B37 no binding seen

10 neighbouring records from above, for reference:
Apparent Kd, inactive:
B13 no binding seen
B14 no binding seen
B15 no binding seen
B16 no binding seen
B17 no binding seen
B18 no binding seen
B19 no binding seen
B20 no binding seen
B21 no binding seen
B22 no binding seen
